# PubChem BioAssay AID1259254 – NCATS – 2017
# Assay: 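Finding genes that stop cells copying their DNA twice in one cycle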 (primary screen)
# Cell system: human HCT116 colorectal cancer cells
# Knock-down reagent: single siRNA against human genes
# Time to read-out: 3 days
# Measured: 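Nuclei stained with Hoechst and imaged; cell-cycle phase assigned by DNA content; G2 share scaled per plate, non-targeting siRNA 0%, GMNN siRNA 100%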
# Scale: G2 robust z-score: higher = more G2 cells, more excess DNA replication
# Call rule: 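An siRNA counts as active if its G2 robust z-score lies at least 5 MADs above the screen median; here such calls match roughly 38% of GMNN control or more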
# The whole screen tested about 59,000 reagents; below is a random part of them. About 1,550 of all reagents (2.6%) were called active. 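G2 share is only a proxy for re-replication; each gene was hit by three separate siRNAs, and active genes were retested.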 Entries without a mark were called inactive. Reagents against one gene are numbered here. Not all columns of the deposit are shown. Not stated in the record: the amount of reagent.
Target gene,reagent,G2 robust z-score
SDC3,1,-0.44
SDC3,2,0.727
SDC3,3,0.377
FGF11,1,0.014
FGF11,2,0.166
FGF11,3,-0.919
CAPN9,1,0.394
CAPN9,2,0.423
CAPN9,3,-0.918
METAP1,1,-0.16
METAP1,2,1.93
METAP1,3,-0.35

No new results follow: entries from further up.
Target gene,reagent,G2 robust z-score
FGF11,3,-0.919
CAPN9,1,0.394
CAPN9,2,0.423
CAPN9,3,-0.918

More reagents follow.
Target gene,reagent,G2 robust z-score
LOC728158,1,0.0902
LOC728158,2,0.18
LOC728158,3,0.577
SAV1,1,0.251
SAV1,2,-0.248
SAV1,3,-0.744
AMD1,1,1.23
AMD1,2,4.16
AMD1,3,1.12
EIF3CL,1,5.12 (active)
EIF3CL,2,4.06
EIF3CL,3,3.09
CRX,1,-0.641
CRX,2,2.4
CRX,3,1.3
FZD5,1,3.64
FZD5,2,-0.426
FZD5,3,0.744
